Measurements reported in article doi:10.1101/2025.07.22.666133.
These are yes or no findings as the source states them, for the method shown. Binding seen in cells or lysates may run through a third protein. These calls come from enrichment with a bait or labelling near it, and not all partners need be listed.

The chains behind the UniProt entries cited, without tags or fusion partners. Where a name states a change or a piece, a line headed by the entry shows the natural chain unless it says otherwise.
UniProt P02545: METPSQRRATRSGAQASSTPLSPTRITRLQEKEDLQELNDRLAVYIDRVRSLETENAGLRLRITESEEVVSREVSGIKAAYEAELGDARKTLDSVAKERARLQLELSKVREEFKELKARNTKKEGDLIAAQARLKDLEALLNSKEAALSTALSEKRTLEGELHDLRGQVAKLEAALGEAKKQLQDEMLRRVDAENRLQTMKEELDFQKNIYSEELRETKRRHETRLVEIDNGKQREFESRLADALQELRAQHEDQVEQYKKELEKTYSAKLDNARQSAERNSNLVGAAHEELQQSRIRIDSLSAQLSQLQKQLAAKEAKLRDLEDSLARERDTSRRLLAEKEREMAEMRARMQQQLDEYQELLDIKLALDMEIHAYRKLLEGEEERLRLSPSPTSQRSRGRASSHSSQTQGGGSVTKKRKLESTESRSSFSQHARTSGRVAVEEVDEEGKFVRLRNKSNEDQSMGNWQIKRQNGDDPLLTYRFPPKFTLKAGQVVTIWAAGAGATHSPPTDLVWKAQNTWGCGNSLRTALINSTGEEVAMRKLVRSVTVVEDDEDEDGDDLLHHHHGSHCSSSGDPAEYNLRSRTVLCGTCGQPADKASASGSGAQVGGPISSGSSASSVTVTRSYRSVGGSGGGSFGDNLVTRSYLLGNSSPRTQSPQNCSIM

B1: Sun1 (protein, UniProt Q9D666 1-913)
chain: MDFSRLHTYTPPQCVPENTGYTYALSSSYSSDALDFETEHKLEPVFDSPRMSRRSLRLVTTASYSSGDSQAIDSHISTSRATPAKGRETRTVKQRRSASKPAFSINHLSGKGLSSSTSHDSSCSLRSATVLRHPVLDESLIREQTKVDHFWGLDDDGDLKGGNKAATQGNGELAAEVASSNGYTCRDCRMLSARTDALTAHSAIHGTTSRVYSRDRTLKPRGVSFYLDRTLWLAKSTSSSFASFIVQLFQVVLMKLNFETYKLKGYESRAYESQSYETKSHESEAHLGHCGRMTAGELSRVDGESLCDDCKGKKHLEIHTATHSQLPQPHRVAGAMGRLCIYTGDLLVQALRRTRAAGWSVAEAVWSVLWLAVSAPGKAASGTFWWLGSGWYQFVTLISWLNVFLLTRCLRNICKVFVLLLPLLLLLGAGVSLWGQGNFFSLLPVLNWTAMQPTQRVDDSKGMHRPGPLPPSPPPKVDHKASQWPQESDMGQKVASLSAQCHNHDERLAELTVLLQKLQIRVDQVDDGREGLSLWVKNVVGQHLQEMGTIEPPDAKTDFMTFHHDHEVRLSNLEDVLRKLTEKSEAIQKELEETKLKAGSRDEEQPLLDRVQHLELELNLLKSQLSDWQHLKTSCEQAGARIQETVQLMFSEDQQGGSLEWLLEKLSSRFVSKDELQVLLHDLELKLLQNITHHITVTGQAPTSEAIVSAVNQAGISGITEAQAHIIVNNALKLYSQDKTGMVDFALESGGGSILSTRCSETYETKTALLSLFGVPLWYFSQSPRVVIQPDIYPGNCWAFKGSQGYLVVRLSMKIYPTTFTMEHIPKTLSPTGNISSAPKDFAVYGLETEYQEEGQPLGRFTYDQEGDSLQMFHTLERPDQAFQIVELRVLSNWGHPEYTCLYRFRVHGEPIQ
B2: Filamin A-interacting protein 1-like (protein, UniProt Q6P6L0 1-1131)
chain: MRSRSSNAEGSAPKQIPRHSKFQDSIQDMKHRTHKKDPSCESEGVLPRPVSEKSHTGKGHHTEDLSRDDLLFLLSILEGELQARDEVIGILRAEKIDLALLEAQYGFVTPKKVLEALQRDAFQAKSAPWQEDIYEKPMNELDKVVEKHKESHRRILEQLLMVERSHRQTIMEMEEEKRKHKEYMKKSDEFINLLEQECERLKKLIDQETASQEKKEQEKEKRIKTLKEELTKLKSFALMVVDEQQRLTAQLALQRQKIQALTTSAKETQGKLALAEARAQEEEQKATRLEKELQTQTTEFHQNQDKIMAKLTNEDSQNRQLRQKLAALSRQIDELEETNRSLRKAEEELQDIKDKINKGEYGNSGIMDEVDELRKRVLDMEGKDEELIKMEEQCRDLNKRLEKETVQSKDFKLEVDKLSVRITALEKLEDALDKSKQECYSLKCNLEKEKMTTKQLSEELESLNARIKELEAIESRLEKTEITLKDDLTKLKTLTVMLVDERKTMSEKLKQTEDKLQSTTSQLQAEQNKVTTVTEKLIEETKRALKSKTDAEEKMYSVTKERDDLRNKLKAEEEKGHDLLSKVTILKNRLQSLEAIEKDFVKNKLNQDSSKSTAALHQENNKIKELSQEVENLKLKLKDMKAIEDDLMKTEDEYETLERRYANERDKAQFLSQELEHAKMELAKYKLAEKTESSHEQWLFRRLQEEEAKSGHLSREVDALKEKIHEYMATEDLICHLQGDHSLLQKKLNQQENRNRDLGREIENLTKELERYRHFSKSLRPSLNGRRISDPQVFSKEVQTEAADSEPPDYKSLIPLERAVINGQFYEENEDQDDDPNEEESVLSFRCSQSSSLPMNRKLWIPWMKSKEGHPQNGKIQTKSNGNFVQPGDLVLSHTPGQPLHIKVTPDHIQNTATLEITSPTTESPHSYTSTAVIPNCGTPKQRITILQNASITPIKSKSSTESLMNLEQSMSPVTMATFARAQTPESCGSVTPERTMSPIQVLAMTGSPSSPEQGCSPEPIEISAKHAIFRVSPDRQSSWQFQRSNSNSSSVITTEDNKIHIHLGSPYMQAVAGPMRPASPSAPLQDNRTQGLTNGALNKTTNKVTSSITITPTATPLPRQSQITVSNIYN

Target: FLAG-tagged full-length human lamin A (human) (UniProt P02545)
Assay: affinity purification with mass spectrometry

Row | Binder | binding
1 | B1 | binds
2 | B2 | binds
